The other results are listed elsewhere or left out.

By UniProt entry, the sequences of proteins in these tests, tags left out. Where a name states a change or a piece, a line headed by the entry shows the natural chain unless it says otherwise.
UniProt Q53H54: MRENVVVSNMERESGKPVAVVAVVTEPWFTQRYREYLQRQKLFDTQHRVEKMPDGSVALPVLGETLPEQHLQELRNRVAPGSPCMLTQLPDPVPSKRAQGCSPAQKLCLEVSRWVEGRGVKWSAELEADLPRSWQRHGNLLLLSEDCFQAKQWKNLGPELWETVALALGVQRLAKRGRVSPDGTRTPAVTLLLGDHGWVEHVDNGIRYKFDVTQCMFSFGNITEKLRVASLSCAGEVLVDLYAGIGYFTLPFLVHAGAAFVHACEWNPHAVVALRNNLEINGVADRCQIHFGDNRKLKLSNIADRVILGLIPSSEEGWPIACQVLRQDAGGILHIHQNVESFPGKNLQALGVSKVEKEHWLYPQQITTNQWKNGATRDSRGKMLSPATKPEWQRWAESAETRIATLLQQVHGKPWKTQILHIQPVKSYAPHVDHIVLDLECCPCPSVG
UniProt Q8N5M4: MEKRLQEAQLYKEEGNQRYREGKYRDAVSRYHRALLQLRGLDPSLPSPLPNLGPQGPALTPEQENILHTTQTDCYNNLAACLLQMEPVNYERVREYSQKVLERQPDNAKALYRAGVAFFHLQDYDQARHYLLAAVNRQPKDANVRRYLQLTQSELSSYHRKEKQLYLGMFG
UniProt Q7Z4G4: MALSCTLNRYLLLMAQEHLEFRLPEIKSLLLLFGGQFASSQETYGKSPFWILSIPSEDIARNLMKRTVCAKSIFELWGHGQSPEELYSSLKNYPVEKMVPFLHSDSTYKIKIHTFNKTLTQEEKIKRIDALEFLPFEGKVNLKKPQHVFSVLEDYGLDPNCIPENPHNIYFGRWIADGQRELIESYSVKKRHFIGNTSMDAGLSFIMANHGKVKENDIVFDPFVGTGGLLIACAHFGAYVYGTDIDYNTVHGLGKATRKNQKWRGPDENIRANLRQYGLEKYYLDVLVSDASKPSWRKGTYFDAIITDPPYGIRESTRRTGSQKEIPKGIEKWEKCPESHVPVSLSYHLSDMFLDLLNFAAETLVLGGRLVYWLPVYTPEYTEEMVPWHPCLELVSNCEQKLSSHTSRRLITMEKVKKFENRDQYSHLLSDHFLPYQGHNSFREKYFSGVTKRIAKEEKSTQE
UniProt Q15714: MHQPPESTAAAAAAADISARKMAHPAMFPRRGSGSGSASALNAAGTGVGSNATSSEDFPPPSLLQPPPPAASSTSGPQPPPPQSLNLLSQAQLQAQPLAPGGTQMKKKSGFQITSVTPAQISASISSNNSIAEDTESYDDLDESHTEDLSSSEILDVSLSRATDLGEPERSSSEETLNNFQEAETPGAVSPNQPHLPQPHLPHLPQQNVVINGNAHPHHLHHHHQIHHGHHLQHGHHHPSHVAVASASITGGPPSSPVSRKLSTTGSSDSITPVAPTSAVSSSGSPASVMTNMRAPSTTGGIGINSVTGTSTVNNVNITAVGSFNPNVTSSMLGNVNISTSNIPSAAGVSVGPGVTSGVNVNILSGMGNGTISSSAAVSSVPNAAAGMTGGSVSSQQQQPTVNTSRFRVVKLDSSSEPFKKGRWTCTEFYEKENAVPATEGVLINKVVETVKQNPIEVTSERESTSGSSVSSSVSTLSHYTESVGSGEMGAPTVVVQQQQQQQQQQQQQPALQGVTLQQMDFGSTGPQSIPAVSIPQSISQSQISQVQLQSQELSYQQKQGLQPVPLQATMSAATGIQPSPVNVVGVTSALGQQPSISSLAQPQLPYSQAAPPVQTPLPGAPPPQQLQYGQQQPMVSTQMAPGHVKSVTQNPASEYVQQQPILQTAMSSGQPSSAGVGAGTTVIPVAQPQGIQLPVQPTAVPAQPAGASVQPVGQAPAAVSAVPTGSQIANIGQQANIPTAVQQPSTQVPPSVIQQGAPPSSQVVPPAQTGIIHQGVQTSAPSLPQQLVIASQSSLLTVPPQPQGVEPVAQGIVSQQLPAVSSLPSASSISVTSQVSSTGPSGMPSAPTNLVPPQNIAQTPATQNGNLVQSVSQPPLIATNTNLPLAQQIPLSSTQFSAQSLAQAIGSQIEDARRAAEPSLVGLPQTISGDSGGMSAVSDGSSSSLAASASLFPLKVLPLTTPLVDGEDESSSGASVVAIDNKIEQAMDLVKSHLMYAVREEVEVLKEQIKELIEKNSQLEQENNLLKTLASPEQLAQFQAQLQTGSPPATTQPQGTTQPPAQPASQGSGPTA
UniProt Q9C037: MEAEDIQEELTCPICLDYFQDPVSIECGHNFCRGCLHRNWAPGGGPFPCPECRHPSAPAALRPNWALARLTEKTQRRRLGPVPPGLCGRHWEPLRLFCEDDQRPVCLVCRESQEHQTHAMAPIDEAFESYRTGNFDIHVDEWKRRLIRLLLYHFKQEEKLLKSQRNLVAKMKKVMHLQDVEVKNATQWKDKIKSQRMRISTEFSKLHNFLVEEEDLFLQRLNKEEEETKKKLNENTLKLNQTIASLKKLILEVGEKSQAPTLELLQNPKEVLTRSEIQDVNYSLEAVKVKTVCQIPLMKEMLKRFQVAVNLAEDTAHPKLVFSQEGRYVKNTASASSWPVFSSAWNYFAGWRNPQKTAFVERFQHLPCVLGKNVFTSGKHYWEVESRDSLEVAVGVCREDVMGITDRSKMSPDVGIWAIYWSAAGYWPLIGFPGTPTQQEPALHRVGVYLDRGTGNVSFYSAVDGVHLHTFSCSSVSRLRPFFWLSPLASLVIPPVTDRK
UniProt Q96F44: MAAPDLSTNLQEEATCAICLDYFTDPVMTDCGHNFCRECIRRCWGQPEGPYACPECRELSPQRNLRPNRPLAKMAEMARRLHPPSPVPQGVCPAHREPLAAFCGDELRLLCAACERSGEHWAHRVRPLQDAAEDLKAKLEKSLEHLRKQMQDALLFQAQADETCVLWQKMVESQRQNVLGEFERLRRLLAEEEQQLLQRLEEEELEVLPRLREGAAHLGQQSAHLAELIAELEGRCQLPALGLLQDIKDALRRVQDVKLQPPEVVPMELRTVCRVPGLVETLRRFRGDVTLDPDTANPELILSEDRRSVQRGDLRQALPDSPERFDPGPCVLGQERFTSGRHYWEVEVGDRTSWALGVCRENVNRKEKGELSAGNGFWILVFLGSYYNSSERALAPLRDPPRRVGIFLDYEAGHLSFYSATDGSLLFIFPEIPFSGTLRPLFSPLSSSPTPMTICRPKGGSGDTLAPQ
UniProt Q92574: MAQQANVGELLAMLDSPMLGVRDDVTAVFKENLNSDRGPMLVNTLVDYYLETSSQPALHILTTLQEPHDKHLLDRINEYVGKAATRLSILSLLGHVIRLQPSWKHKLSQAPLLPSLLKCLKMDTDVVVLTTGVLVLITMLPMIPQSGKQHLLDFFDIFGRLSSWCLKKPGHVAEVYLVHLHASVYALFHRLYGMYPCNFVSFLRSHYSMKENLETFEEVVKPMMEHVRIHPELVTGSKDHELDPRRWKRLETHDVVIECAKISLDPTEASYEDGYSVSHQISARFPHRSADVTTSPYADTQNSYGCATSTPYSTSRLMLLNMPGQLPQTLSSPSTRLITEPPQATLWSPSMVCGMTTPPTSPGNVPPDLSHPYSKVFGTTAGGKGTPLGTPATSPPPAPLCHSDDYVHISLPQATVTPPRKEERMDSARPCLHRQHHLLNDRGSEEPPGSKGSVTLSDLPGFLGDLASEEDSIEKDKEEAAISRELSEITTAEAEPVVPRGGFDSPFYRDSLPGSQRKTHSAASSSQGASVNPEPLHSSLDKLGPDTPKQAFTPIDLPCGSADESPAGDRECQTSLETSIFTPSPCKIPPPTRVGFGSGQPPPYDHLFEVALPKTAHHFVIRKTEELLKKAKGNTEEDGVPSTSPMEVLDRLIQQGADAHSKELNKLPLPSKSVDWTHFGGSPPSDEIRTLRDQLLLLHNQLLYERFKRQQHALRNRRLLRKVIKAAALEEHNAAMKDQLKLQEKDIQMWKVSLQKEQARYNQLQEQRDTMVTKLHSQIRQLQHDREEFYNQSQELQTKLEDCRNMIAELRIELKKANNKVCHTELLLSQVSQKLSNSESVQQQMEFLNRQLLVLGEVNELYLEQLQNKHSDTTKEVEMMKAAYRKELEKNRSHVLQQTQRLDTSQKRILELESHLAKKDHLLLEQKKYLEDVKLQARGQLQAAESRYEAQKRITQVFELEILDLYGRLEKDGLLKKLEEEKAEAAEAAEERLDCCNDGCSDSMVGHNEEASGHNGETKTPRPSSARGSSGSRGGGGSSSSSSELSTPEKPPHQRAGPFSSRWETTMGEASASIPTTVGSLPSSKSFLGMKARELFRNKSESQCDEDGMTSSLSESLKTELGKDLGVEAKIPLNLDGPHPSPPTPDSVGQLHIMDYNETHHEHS
UniProt Q5BVD1: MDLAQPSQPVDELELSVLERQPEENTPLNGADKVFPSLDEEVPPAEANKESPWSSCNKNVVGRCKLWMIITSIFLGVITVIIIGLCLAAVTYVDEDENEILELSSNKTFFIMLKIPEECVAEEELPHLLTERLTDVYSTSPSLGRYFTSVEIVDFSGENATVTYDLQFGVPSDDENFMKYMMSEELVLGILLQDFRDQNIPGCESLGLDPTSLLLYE
UniProt Q6NXR4: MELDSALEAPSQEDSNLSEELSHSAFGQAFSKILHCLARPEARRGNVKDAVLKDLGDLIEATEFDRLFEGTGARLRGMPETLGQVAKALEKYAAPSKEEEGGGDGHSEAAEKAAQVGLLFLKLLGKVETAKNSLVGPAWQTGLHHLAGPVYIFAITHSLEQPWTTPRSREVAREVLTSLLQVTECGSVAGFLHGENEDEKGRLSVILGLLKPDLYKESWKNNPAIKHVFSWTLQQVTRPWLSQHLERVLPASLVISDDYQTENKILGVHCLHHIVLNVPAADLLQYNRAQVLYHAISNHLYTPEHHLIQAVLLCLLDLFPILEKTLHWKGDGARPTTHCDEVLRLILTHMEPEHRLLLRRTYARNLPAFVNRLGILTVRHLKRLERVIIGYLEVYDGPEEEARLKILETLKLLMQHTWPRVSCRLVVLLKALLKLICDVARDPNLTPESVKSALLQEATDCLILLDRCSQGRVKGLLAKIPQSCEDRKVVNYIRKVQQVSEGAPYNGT
UniProt Q15642: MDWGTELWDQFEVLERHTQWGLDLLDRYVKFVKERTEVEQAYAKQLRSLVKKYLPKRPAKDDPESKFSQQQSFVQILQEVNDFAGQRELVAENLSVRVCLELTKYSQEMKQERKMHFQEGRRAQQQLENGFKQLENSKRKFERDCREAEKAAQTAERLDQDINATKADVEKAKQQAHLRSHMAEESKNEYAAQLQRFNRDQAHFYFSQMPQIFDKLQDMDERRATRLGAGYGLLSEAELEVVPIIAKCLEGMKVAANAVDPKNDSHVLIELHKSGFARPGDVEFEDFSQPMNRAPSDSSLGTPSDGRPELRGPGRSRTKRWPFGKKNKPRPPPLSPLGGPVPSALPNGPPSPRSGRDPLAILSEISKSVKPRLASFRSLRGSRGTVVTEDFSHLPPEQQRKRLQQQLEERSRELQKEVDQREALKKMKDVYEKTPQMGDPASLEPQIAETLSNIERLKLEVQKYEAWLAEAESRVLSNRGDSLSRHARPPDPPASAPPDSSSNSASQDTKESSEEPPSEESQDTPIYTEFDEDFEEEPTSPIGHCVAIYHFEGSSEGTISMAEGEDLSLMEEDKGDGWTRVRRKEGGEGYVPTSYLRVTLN
UniProt Q9Y296, whole entry, looked up: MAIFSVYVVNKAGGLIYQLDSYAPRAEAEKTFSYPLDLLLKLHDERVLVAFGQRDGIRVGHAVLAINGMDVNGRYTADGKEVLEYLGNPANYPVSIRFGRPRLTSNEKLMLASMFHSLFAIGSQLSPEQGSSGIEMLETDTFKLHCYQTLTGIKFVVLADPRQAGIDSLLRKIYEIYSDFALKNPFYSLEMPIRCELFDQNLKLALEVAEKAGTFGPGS
UniProt Q9H892: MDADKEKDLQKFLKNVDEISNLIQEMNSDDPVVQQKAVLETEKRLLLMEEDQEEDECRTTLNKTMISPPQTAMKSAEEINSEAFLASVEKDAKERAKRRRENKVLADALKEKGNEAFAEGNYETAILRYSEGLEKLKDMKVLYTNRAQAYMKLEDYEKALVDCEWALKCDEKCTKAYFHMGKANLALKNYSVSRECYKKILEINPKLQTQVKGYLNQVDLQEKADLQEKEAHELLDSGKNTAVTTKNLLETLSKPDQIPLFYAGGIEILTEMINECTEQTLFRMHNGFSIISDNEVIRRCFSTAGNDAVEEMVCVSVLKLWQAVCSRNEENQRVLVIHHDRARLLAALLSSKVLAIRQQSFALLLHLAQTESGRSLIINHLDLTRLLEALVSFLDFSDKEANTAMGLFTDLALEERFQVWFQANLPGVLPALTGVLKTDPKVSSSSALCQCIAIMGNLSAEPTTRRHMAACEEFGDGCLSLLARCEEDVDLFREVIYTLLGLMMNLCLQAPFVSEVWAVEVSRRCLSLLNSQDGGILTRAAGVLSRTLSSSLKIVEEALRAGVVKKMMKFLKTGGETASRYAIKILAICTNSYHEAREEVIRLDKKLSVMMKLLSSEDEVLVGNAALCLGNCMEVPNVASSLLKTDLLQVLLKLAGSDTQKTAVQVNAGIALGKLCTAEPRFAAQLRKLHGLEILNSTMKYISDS

Compound in the experiment: C1COCCN1CCN2C3=CC=CC=C3N=C2NC(=O)C4=CC(=CC=C4)[N+](=O)[O-] [IRAK-1-4 Inhibitor I]
Briefly: log2 fold change, soluble protein after heating vs DMSO (PISA); higher = thermal stabilisation; K562 lysate, 10 uM; active = over 0.2 and 3.5 SD of the protein, either way, in both replicates (recomputed). The gist of the method:
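K562 pellets were dounce-homogenised in PBS pH 7.4 containing 1 mM MgCl2, and the crude extract, at 1 mg/mL protein, was exposed to 10 μM compound for 30 min. Aliquots were heated for 3 min across 48°C-58°C, pooled, brought to 0.5% NP-40 at 4°C and spun at 21,000xg for 90 min, with the supernatant taken as soluble protein. TMTpro 16plex LC-MS/MS with equalised channel sums quantified that protein. Values are log-two fold changes in thermal stability relative to solvent controls, taken from duplicates.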
TSSC4 (UniProt Q9Y5U2): the log2 fold change was inactive: -0.028.

Turning to TRIM44 (UniProt Q96DX7), the log2 fold change is inactive: 0.043.

In the case of TRMT12 (UniProt Q53H54), the log2 fold change is inactive: -0.03.

Take TTC9C (UniProt Q8N5M4): the log2 fold change was inactive: -0.01.

Consider TRMT11 (UniProt Q7Z4G4), for which the log2 fold change is inactive: -0.019.

TRAPPC6B (UniProt Q86SZ2): the log2 fold change was inactive: -0.026.

For the target TRIM38 (UniProt O00635), the log2 fold change was inactive: -0.003.

Turning to TRMT10A (UniProt Q8TBZ6), the log2 fold change is inactive: 0.044.

Take TSN (UniProt Q15631): the log2 fold change is inactive: 0.014.

As for TRAPPC9 isoform 2 (UniProt Q96Q05), the log2 fold change was inactive: 0.027.

For TTLL12 (UniProt V9GY16), the log2 fold change was inactive: 0.229.

For the target TTC7B isoform 2 (UniProt Q86TV6), the log2 fold change is inactive: 0.042.

Take TSPO (UniProt P30536): the log2 fold change is inactive: 0.04.

Regarding TRAPPC6A isoform 2 (UniProt O75865), the log2 fold change was inactive: 0.047.

Turning to TTC27 (UniProt Q6P3X3), the log2 fold change was inactive: -0.013.

Turning to TSC22D1 (UniProt Q15714), the log2 fold change was inactive: -0.018.

With TSFM (UniProt P43897), the log2 fold change is inactive: -0.024.

Consider TRNAU1AP (UniProt Q9NX07), for which the log2 fold change is inactive: -0.005.

With TRIM4 (UniProt Q9C037), the log2 fold change was inactive: -0.003.

As for TRMT6 (UniProt Q9UJA5), the log2 fold change is inactive: 0.

On to TRMT1L (UniProt Q7Z2T5), for which the log2 fold change was inactive: 0.002.

In the case of TRIM11 (UniProt Q96F44), the log2 fold change is inactive: 0.043.

TRPC4AP (UniProt Q8TEL6): the log2 fold change was inactive: -0.005.

With TRAPPC12 (UniProt Q8WVT3), the log2 fold change is inactive: 0.027.

With TSC1 (UniProt Q92574), the log2 fold change is inactive: 0.012.

For TTMP isoform 3 (UniProt Q5BVD1), the log2 fold change is inactive: 0.193.

Consider TTI2 (UniProt Q6NXR4), for which the log2 fold change is inactive: 0.014.

For TRRAP (UniProt Q9Y4A5), the log2 fold change was inactive: 0.017.

As to TRIP10 isoform 2 (UniProt Q15642), the log2 fold change is inactive: -0.078.

For the target TRIR (UniProt Q9BQ61), the log2 fold change was inactive: -0.006.

In the case of TRUB1 (UniProt Q8WWH5), the log2 fold change is inactive: 0.004.

Take TRMT61A (UniProt Q96FX7): the log2 fold change was inactive: -0.001.

As to TRAF3 (UniProt Q13114), the log2 fold change is inactive: 0.082.

TSEN15 (UniProt Q8WW01): the log2 fold change was inactive: -0.01.

Turning to TRMT112 (UniProt Q9UI30), the log2 fold change is inactive: -0.041.

TRMU (UniProt O75648): the log2 fold change was inactive: -0.039.

In the case of TSPAN13 (UniProt O95857), the log2 fold change was inactive: -0.051.

In the case of TRAPPC13 isoform 4 (UniProt A5PLN9), the log2 fold change was inactive: -0.019.

Regarding TRAPPC4 (UniProt Q9Y296), the log2 fold change was inactive: -0.02.

On to TTC12 isoform 2 (UniProt Q9H892), for which the log2 fold change was inactive: 0.231.

The record behind these values is the supplement of paper PMC10849652.
